For part of its entries the source gives two or more results. The other results are left out here. The source may hold further records. The records of an entry do not match, cause unknown; dose, time, organism, isomer or construct need not be as stated for each record.
Assay: Pharmacokinetic analysis in mice
Conditions: 50 mg/kg, ip, bid

Question: Which Cmax does the source give for `CSc1nc(N)cc(Oc2ccc(-c3nnc(Nc4cccc(C(F)(F)F)c4)[nH]3)cc2)n1` [Compound 6] here?
Answer: 3.6 μg/ml and 7.7 µM

From US9260417B2, “Therapeutic methods and compositions involving allosteric kinase inhibition” (AMITECH THERAPEUTIC SOLUTIONS, INC., priority 2010, dated 2016)
